The series can be described thus: general procedure: Fmoc solid-phase peptide synthesis; Wang resin; PyBOP/DIEA. As to conditions: whole synthesis.

For 5 substances, isolated mass and isolated yield results are on record in paper PMC12636028 (Journal of the American Chemical Society, 2025).

In the case of NO2A-M-Tyr(3-I)-Ahx-KuE, where the note is “scale 0.128 mmol”, the isolated mass worked out at 0.023 mg and the isolated yield was found to be 13%.
Take NO2A-NMeS-Tyr(3-I)-Ahx-KuE: the isolated mass came to 0.028 mg. This substance came in with an isolated yield (scale of the general procedure 0.13 mmol (model tripeptides), 0.128 mmol printed for target) of 16%.
For NO2A-S-Tyr(3-I)-Ahx-KuE, for the setting “scale 0.128 mmol”, the isolated mass is given as 0.020 mg and the isolated yield is 11%.
In the same order, the values of NO2A-NMeG-Tyr(3-I)-Ahx-KuE are 0.026 mg and 15%.
On to NO2A-NMeM-T-Ahx-KuE, for which, where the note is “scale 0.128 mmol”, the isolated mass came out at 0.024 mg and the isolated yield was found to be 13%.
